Assay results as given in article PMC3499479.
Results are given in words; binding and its absence hold for the method and conditions named. Some results given as binding are weak or reduced against the parent protein; the word gives no strength.

Key:
Experiment in all cases: two-hybrid; FBX fused to Gal4-DB, ASK fused to Gal4-AD; yeast mating; selection on SD without Leu, Trp, His, Ade (high strength) or without Leu, Trp, His (low strength); every combination examined twice
[1] = target: T1, F-box (FBX) protein At3g17490 (Arabidopsis thaliana) (UniProt Q9LUP8)
T1 sequence: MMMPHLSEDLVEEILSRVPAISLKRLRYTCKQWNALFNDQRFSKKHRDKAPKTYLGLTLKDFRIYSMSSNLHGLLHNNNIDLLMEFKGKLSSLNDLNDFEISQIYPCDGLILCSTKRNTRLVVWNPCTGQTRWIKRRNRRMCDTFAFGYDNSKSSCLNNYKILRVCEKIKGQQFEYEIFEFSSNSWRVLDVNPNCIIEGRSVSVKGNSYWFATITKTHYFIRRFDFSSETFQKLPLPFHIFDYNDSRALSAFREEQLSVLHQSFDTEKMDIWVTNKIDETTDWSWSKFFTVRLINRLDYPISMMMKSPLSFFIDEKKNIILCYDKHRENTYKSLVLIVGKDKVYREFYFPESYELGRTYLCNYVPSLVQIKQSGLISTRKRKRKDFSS

[2] = target: T2, F-box (FBX) protein At2g07140 (Arabidopsis thaliana) (UniProt Q9ZV78)
T2 sequence: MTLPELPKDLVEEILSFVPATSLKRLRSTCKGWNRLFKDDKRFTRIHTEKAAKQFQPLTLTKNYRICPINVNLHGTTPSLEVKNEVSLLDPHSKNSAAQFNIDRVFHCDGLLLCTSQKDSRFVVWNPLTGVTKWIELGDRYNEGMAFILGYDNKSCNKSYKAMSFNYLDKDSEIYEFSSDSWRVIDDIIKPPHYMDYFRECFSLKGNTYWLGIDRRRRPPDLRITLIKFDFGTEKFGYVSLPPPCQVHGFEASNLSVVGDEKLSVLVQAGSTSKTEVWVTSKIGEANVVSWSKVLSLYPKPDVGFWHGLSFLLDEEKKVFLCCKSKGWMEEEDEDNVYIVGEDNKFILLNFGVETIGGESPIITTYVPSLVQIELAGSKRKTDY

[3] = target: T3, F-box (FBX) protein At3g22940 (Arabidopsis thaliana) (UniProt Q9LIK3)
T3 sequence: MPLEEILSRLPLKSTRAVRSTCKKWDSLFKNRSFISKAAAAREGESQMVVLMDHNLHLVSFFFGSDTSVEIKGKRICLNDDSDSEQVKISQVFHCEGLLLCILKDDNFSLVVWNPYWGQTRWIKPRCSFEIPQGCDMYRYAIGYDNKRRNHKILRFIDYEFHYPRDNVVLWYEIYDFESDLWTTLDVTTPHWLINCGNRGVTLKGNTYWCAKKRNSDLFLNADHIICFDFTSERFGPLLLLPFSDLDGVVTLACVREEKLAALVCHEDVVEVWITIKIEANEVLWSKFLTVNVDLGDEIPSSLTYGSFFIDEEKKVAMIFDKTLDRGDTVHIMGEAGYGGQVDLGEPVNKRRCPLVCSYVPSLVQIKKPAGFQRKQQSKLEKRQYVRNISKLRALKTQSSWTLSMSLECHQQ

binding [1]: binds | binding [2]: binds | binding [3]: binds
B1: Arabidopsis SKP1-LIKE 18 (ASK18) (protein, UniProt Q9SY65 1-158)
chain: MSSNKILLTSSDGESFEIDEAVARKFLIIVHMMEDNCAGEAIPLENVTGDILSKIIEYAKMHVNEPSEEDEDEEAKKNLDSWDAKFMEKLDLETIFKIILAANYLNFEGLLGFASQTVADYIKDKTPEEVREIFNIENDFTPEEEEEIRKENAWTFNE
